# For at least one compound, name, drawing or mass did not settle the structure.
# Assays:
# AML [1] = experiment: Tipifarnib treatment of previously untreated elderly or unfit AML patients, survival analysed by mRNA expression of FLT3LG/CXCR4; type: in vivo, human; settings: highest FLT3LG tertile and highest CXCR4 tertile versus other patients (FIG. 3A left)
# Experimental: (§1) Previous clinical studies with tipifarnib were performed in newly diagnosed AML in elderly patients with poor risk AML or relapsed and refractory AML. In these studies, patient selection was not based on genetic markers. Anecdotal evidence of tipifarnib single agent activity was reported.
# AML [2] = experiment: Tipifarnib treatment of relapsed or refractory AML patients, survival analysed by mRNA expression of FLT3LG/CXCR4; type: in vivo, human; settings: highest FLT3LG tertile and highest CXCR4 tertile versus other patients (FIG. 3A right)
# Experimental: as §1
smiles,measurement,setting,value
Cn1cncc1[C@@](N)(c1ccc(Cl)cc1)c1ccc2c(c1)c(-c1cccc(Cl)c1)cc(=O)n2C [tipifarnib],PFS,AML [1],the longest PFS
same,PFS,AML [2],the longest PFS

# — patent US20220305001A1, “METHODS OF TREATING ACUTE MYELOID LEUKEMIA WITH FARNESYLTRANSFERASE INHIBITORS” (Kura Oncology, Inc., priority 2019, published 2022)
